Laboratory results taken from article PMC7819943, “Rice protein-binding microarrays: a tool to detect cis-acting elements near promoter regions in rice”.
The list shows a part of the results.

By UniProt entry, the sequences of proteins in these tests, tags left out.
UniProt Q0JBA9, entry or part of it: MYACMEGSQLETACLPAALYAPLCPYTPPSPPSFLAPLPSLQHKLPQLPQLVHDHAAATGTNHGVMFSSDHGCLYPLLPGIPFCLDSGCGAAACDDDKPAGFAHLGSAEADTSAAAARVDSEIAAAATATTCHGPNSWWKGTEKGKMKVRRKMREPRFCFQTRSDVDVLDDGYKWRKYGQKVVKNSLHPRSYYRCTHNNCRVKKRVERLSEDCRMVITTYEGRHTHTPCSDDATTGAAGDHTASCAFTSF

biological target: OsWRKY34 (Oryza sativa, UniProt Q0JBA9 1-250); test: protein-binding microarray (RPBM); PBS, 2% BSA, 51.3 ng/ul salmon testes DNA, 50 uM zinc acetate, 200 nM TF, 25 C, 1 h; high values mean tight binding; conditions: protein: recombinant; tags: N-terminal polyhistidine and DsRed monomer fusion (pET32a); label: CyDye5-dUTP incorporated in the synthesized complementary strand; 3' TTTTT single-stranded linker to array surface; dsDNA, one strand shown
Method in brief: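 Binding signal here means per-feature fluorescence intensity in arbitrary units. The values were read on an Axon 4000B scanner after a custom Agilent array, double-stranded by primer extension with Cy5-dUTP, was incubated with 200 nM protein at 25 °C for 1 h in PBS with 2% BSA, salmon testes DNA and 50 µM zinc acetate, then washed. The proteins were transcription factors with an N-terminal polyhistidine tag and DsRed, expressed in E. coli BL21-CodonPlus and purified on Ni–NTA.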

Sequence	binding signal
TCCATCCCGGCCCGGCACTGCACACACGCGCGTAGTACCACGGAGTCACCTAGTGCAG	8130 fluorescence intensity (a.u.)
GGTGGTGGGCATTCCTTTGCATCTCTTGTAGCTAATAAGCCGGAGTCACCTAGTGCAG	11100 fluorescence intensity (a.u.)
ATCGACCCTTGCGCGGACTCCGCTCTCTTGTTGACCACCTCGGAGTCACCTAGTGCAG	14600 fluorescence intensity (a.u.)
CGTCAGTGAGACAGCCGCCCACGCCTTAAAGCCCAAACCCCGGAGTCACCTAGTGCAG	10300 fluorescence intensity (a.u.)
TCCCTGCATGTATTACAGTTAATTTGTGTCAGTTCTTGCTCGGAGTCACCTAGTGCAG	11400 fluorescence intensity (a.u.)
ACCTCTGTTCTCATTTCCTACAGATTCCACAAGTGCCTGCCGGAGTCACCTAGTGCAG	9390 fluorescence intensity (a.u.)
GCTCCGGGGCAACCGTCTTCCCGGTCCACCACATCCTCGGCGGAGTCACCTAGTGCAG	8200 fluorescence intensity (a.u.)
TTTTTTTTTCTTTTTTCTTTTTTCTATGTGTATTTATAATCGGAGTCACCTAGTGCAG	9350 fluorescence intensity (a.u.)
CTTTCTTTATTCTTCTTTTTTTTTTCCCACGCTGTCTAACCGGAGTCACCTAGTGCAG	11300 fluorescence intensity (a.u.)
CTCTAATGGTTTTTTCATTTTACACGCTCGTACTTAATCTCGGAGTCACCTAGTGCAG	8500 fluorescence intensity (a.u.)
ACCCTGCGGATTAACAGAGTAAACTGCAACAAACCACGCGCGGAGTCACCTAGTGCAG	8090 fluorescence intensity (a.u.)
TTTTTCCTGCCCGGTTTTTTTGCCCGATTCTTTTTTTTGACGGAGTCACCTAGTGCAG	15200 fluorescence intensity (a.u.)
ACCTAACATAGTTTGACTCATCTGCTGGTCAAACCTATCGCGGAGTCACCTAGTGCAG	10000 fluorescence intensity (a.u.)
ATTATTATTGTTGCTAATTAATATGTTGTTTTACAGCAATCGGAGTCACCTAGTGCAG	8960 fluorescence intensity (a.u.)
GGTATTTTAGGCTTTTTTTTAACATCGTTAAATGTCCTTACGGAGTCACCTAGTGCAG	8310 fluorescence intensity (a.u.)
ACTATAGCCCATTCCGAAGTCTATCGCTATCCACTTCGTCCGGAGTCACCTAGTGCAG	8540 fluorescence intensity (a.u.)
GTCCCTGTCCCCAGCCGCGCCGGCACCTCATCGCCGACCCCGGAGTCACCTAGTGCAG	9250 fluorescence intensity (a.u.)
GCGTGCACTCCCGTCCTGTTGTCGTGCCGTCTCCAGTCCCCGGAGTCACCTAGTGCAG	10900 fluorescence intensity (a.u.)
TTGGACTCTTTCTCTCTCATTCCACTTCTTGCTCGCCGCCCGGAGTCACCTAGTGCAG	11800 fluorescence intensity (a.u.)
CTCTTATTTATGTAATTAGTTTTATAAGTTGCCTATGTTTCGGAGTCACCTAGTGCAG	8450 fluorescence intensity (a.u.)
GGTCGCTTGCTTCTTTTGGTGGGGTGCCGGGATTCCCCTCCGGAGTCACCTAGTGCAG	11900 fluorescence intensity (a.u.)
ATTCAATTATGGTTTGGTTGGTTAGCACTGGAATCTTTACCGGAGTCACCTAGTGCAG	8330 fluorescence intensity (a.u.)
ATGGTGTTGTTTCTGAATTTCTGGTGTGAATAAAGCTCTTCGGAGTCACCTAGTGCAG	10600 fluorescence intensity (a.u.)

Individual results from above.
CGTCAGTGAGACAGCCGCCCACGCCTTAAAGCCCAAACCCCGGAGTCACCTAGTGCAG – binding signal: 10300 fluorescence intensity (a.u.)
GGTCGCTTGCTTCTTTTGGTGGGGTGCCGGGATTCCCCTCCGGAGTCACCTAGTGCAG – binding signal: 11900 fluorescence intensity (a.u.)
